Some of the results follow. Further columns of the screen follow, without active or inactive calls. The list favours compounds with an active or inconclusive main result. Potencies come from curve fits of mixed quality, noted in brackets.

Drawing on PubChem BioAssay AID2685 (National Center for Advancing Translational Sciences (NCATS), 2010), this text covers cell number change and AC50 for 58 compounds.

This test in a line: qHTS Assay for Lipid Storage Modulators in Drosophila S3 Cells.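 For cell number change: cells counted by Cell Tracker Red CMTPX staining in the red channel.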 The conditions noted are these: BODIPY lipid droplet fluorescence, 18-24 h; for cell number change: measured here: cell count max response, cells fed with added oleic acid. The method, boiled down: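 Drosophila S3 cells loaded with oleic acid (400 uM, as added) and compounds at several concentrations; lipid droplets imaged by 488-nm laser-scanning cytometry, 500–530 nm intensity and object ratio to cell channel. Percent activity normalized to 20 uM Triacsin C.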
In general terms: In qHTS, concentration-response curves come from the screen itself.

The mark [1] stands for this setting: measured here: lipid fluorescence (Fed channel) AC50, cells fed with added oleic acid.
Setting [2] is: measured here: cell number channel AC50, cells fed with added oleic acid.

What is called AC50 is the midpoint of the concentration-response curve, whichever way the signal moves. Higher therefore signals weaker potency. With `C[C@@H](C(O)c1ccccc1)N(C)C(=O)CCc1ccccc1` (some centres not stated), the cell number change was 28.5%. Besides, the AC50 under setting [1] was 29.1 µM [rising, single point].

Consider `CCN(CC(=O)NCc1ccc(F)cc1)Cc1nc2ccccc2c(=O)[nH]1`, for which the cell number change was -0.628%. Moreover, the AC50 under setting [1] was 3.26 µM [rising, partial curve, poor fit]. In the case of `CCCCN(CCCC)C(=O)/C=C/c1cccc([N+](=O)[O-])c1`, the AC50 under setting [1] was 3.66 µM [rising, partial curve]. `CC(=O)Nc1ccc(NC(=O)C2CCN(C(=O)C3CC(=O)N(c4ccc(C)cc4)C3)CC2)cc1` (configuration not stated): the cell number change came to 33.3%. Moreover, the AC50 under setting [2] is 2.06 µM [rising, partial curve, poor fit]. On to `O=C1CCN(C(=O)Nc2ccccc2)N1`, for which the cell number change is -11%. Under setting [1], the AC50 was 0.82 µM [falling, full curve, poor fit].

For the compound `CCN1CCc2c(sc(NC(=O)c3ccc(S(=O)(=O)N(C)c4ccccc4)cc3)c2C(=O)NC)C1`, the cell number change is -28%. Also, the AC50 under setting [2] is 1.3 µM [falling, full curve]. Under setting [1], the AC50 was 0.82 µM [falling, full curve, poor fit]. For the compound `CC(=O)c1ccc(NS(=O)(=O)c2ccc3c(c2)N(C)CCO3)cc1`, the cell number change is -0.895%. The AC50 under setting [1] was 29.1 µM [rising, single point]. As for `O=C(c1c(F)cccc1F)N1CCN(c2ncccn2)CC1`, the cell number change is 23.6%. Regarding `CCOc1ccccc1N/C(=C(/C(Cl)=C(Cl)Cl)[N+](=O)[O-])n1cncn1`, the cell number change was -34.4%. Under setting [2], the AC50 is 16.4 µM [falling, single point]. The AC50 under setting [1] was 20.6 µM [falling, single point].

With `Cc1ccc(Cl)cc1N1CCN(S(=O)(=O)c2ccc3c(c2)oc(=O)n3C)CC1`, the cell number change was determined as 10.1%. Besides, the AC50 under setting [1] was 4.61 µM [rising, full curve].

For `O=C(COc1coc(CN2CCN(c3cccc(Cl)c3)CC2)cc1=O)NC1CCCC1`, the cell number change was determined as 50%. For the same compound, under setting [2], the AC50 is 20.6 µM [rising, single point]. The concentration at half-maximal activity (AC50) under setting [1] is 0.164 µM [falling, full curve, poor fit].

As for `Cn1c(-c2ccsc2)c(-c2cccs2)c2cc(-c3ccc4[nH]ccc4c3)ccc21`, the cell number change is -39.6%. Further, the AC50 under setting [2] is 0.0651 µM [falling, full curve, poor fit]. Further, the AC50 under setting [1] is 6.51 µM [falling, partial curve, poor fit]. Take `O=C(O)C1CCCN1S(=O)(=O)c1ccc2[nH]c(=O)c(=O)[nH]c2c1` (configuration not stated): the cell number change is 18.3%. Moreover, under setting [1], the AC50 was 16.4 µM [falling, partial curve]. Consider `CCN(CC)S(=O)(=O)c1ccc(NC=C(C#N)C#N)cc1`, for which the cell number change was -29.4%. The AC50 under setting [1] is 29.1 µM [falling, single point]. With `Cc1ccc(Cl)c(OCC(=O)Nc2ccccc2N2CCCCC2)c1`, the AC50 under setting [1] was 6.51 µM [rising, single point]. In the case of `CN(C(=O)c1coc(=O)c2ccccc12)c1ccccc1Cl`, the AC50 under setting [2] is 0.116 µM [rising, single point]. As for `CC(C(=O)N1CCN(c2ccccc2F)CC1)c1ccc([N+](=O)[O-])cc1` (configuration not stated), the cell number change was -19.7%. For the same compound, under setting [1], the half-maximal activity concentration (AC50) is 3.66 µM [falling, single point].

`COc1ccc(CNc2ncc(-c3ccccc3)n2C)c2ccccc12`: the cell number change is -1.05%.

Turning to `O=C(CSc1nnc(-c2ccccn2)n1Cc1ccccc1)NC1CCCC1`, the cell number change is -24.2%. In addition, the half-maximal activity concentration (AC50) under setting [1] is 29.1 µM [falling, single point]. For `O=C(NC1CCN(Cc2ccccc2)CC1)c1c(F)cccc1F`, the AC50 is 6.51 µM [rising, single point] under setting [2] and 6.51 µM [rising, single point] under setting [1]. Consider `O=C(c1cnn2ccccc12)N1CCN(C2CCCCC2)CC1`, for which the cell number change came out at 2.43%. Moreover, the AC50 under setting [2] is 0.58 µM [falling, single point]. In the case of `COc1ccc(NC(=S)Nc2ccccc2OC)c(OC)c1`, the cell number change was -44.5%. For the same compound, under setting [2], the AC50 was 29.1 µM [falling, single point].

For `COc1ccc(Cc2nnc(NC(=O)c3ccc(OC)c(OC)c3)s2)cc1OC`, the cell number change was -44.3%. Besides, the AC50 under setting [2] was 16.4 µM [falling, single point]. Besides, the AC50 under setting [1] was 23.1 µM [falling, single point]. For the compound `CCCCn1nc(C(=O)Nc2cc(C(F)(F)F)ccc2N2CCOCC2)ccc1=O`, the cell number change turned out to be 12.5%. Moreover, the AC50 under setting [2] is 9.2 µM [rising, single point]. The AC50 under setting [1] is 29.1 µM [falling, single point]. In the case of `COc1ccc(NC(=O)COc2coc(CN3CCc4ccccc4C3)cc2=O)cc1`, the cell number change was found to be 8.38%. The AC50 under setting [1] is 29.1 µM [falling, single point].

Consider `CCC1(c2ccccc2)NC(=O)N(CC(=O)Nc2cc(C(F)(F)F)ccc2N2CCCC2)C1=O` (configuration not stated), for which the concentration at half-maximal activity (AC50) under setting [1] is 29.1 µM [rising, single point]. Take `O=C(CCS(=O)(=O)c1ccc(Br)s1)Nc1ccccc1Br`: the cell number change was 36.5%. Besides, the AC50 under setting [1] was 0.00461 µM [falling, full curve, poor fit]. As for `O=C(COC(=O)/C=C/c1ccco1)NCc1ccc2c(c1)OCO2`, the cell number change is 17.5%. Regarding `CCCCn1c(C(C)NC(=O)CCC)nc2ccccc21` (configuration not stated), the AC50 under setting [1] is 6.51 µM [rising, single point].

Consider `CCN(c1ccccc1)S(=O)(=O)c1c[nH]c2ccc([N+](=O)[O-])cc12`, for which the AC50 under setting [1] was 7.31 µM [falling, partial curve].

Take `CC(=O)c1ccc(NC(=O)COC(=O)c2ccccc2Nc2ccccc2)cc1`: the cell number change is -18.2%. Besides, the half-maximal activity concentration (AC50) under setting [1] is 0.82 µM [rising, full curve, poor fit]. `CCOc1ccc(CC(=O)Nc2nccs2)cc1`: the cell number change is 99.4%. In addition, under setting [2], the AC50 was 16.4 µM [rising, single point]. For `CCOC(=O)c1ccccc1N/C=C1\CCCCC1=O`, the cell number change was -27.2%. In addition, the AC50 under setting [1] was 2.06 µM [falling, full curve]. For the compound `Cc1ccc(N2CC(C(N)=O)CC2=O)cc1C` (configuration not stated), the cell number change was -99.6%. Also, the AC50 under setting [2] was 29.1 µM [falling, partial curve]. The AC50 under setting [1] is 0.116 µM [falling, full curve, poor fit].

As to `CC(=O)Nc1ccc(S(=O)(=O)N2CCN(C(=O)CCC3CCCC3)CC2)cc1`, the cell number change worked out at 26.4%. Also, the AC50 under setting [1] was 29.1 µM [rising, single point]. As to `O=C(NC1CCCC1)C(=O)N(Cc1cccnc1)C(C(=O)NC1CCCC1)c1ccco1` (configuration not stated), the cell number change was -1.38%. The half-maximal activity concentration (AC50) under setting [1] is 6.51 µM [falling, single point]. For `COC(=O)c1sc2cnccc2c1N`, the concentration at half-maximal activity (AC50) under setting [2] was 2.31 µM [rising, partial curve, poor fit]. As to `Cc1ccc(C)c(COC(=O)CCN=C2NS(=O)(=O)c3ccccc32)c1`, the cell number change was -23.3%. Also, the AC50 under setting [1] was 1.64 µM [falling, partial curve]. For `Cc1noc(C)c1COc1ccc(C(=O)OC(C)C(=O)Nc2ccc(N3CCOCC3)cc2)cc1` (configuration not stated), the cell number change is -7.21%. For the same compound, under setting [2], the AC50 was 0.0731 µM [falling, full curve, poor fit].

As to `Cn1c(-c2cc3c(C(F)(F)F)nn(C)c3s2)n[nH]c1=S`, the cell number change is 8.33%. For the same compound, the AC50 under setting [1] was 18.4 µM [falling, single point]. In the case of `O=C(Nc1ccc(CSc2ccccc2)cc1)c1ccc(CN2CCOCC2)cc1`, the cell number change was -39.7%. Also, the AC50 under setting [2] was 29.1 µM [falling, single point]. As for `CC(=O)N1c2ccc(S(=O)(=O)N3CCC(C(=O)NCc4ccc(C)cc4)CC3)cc2CC1C` (configuration not stated), the cell number change was determined as 28.9%. Further, the AC50 under setting [1] is 6.51 µM [rising, single point]. Turning to `COc1ccccc1-n1c(SCC(=O)c2ccc(O)cc2O)nc2cc([N+](=O)[O-])ccc21`, the cell number change worked out at 24.2%. The concentration at half-maximal activity (AC50) under setting [1] is 9.2 µM [rising, partial curve].

`CCN(CC(=O)Nc1cc(S(=O)(=O)N2CCCCC2)ccc1Cl)Cc1ccccc1`: the cell number change was determined as 155%. Under setting [2], the AC50 was 18.4 µM [rising, single point]. Regarding `Cc1noc(NC(=O)c2ccccc2)c1C#N`, under setting [2], the AC50 is 6.51 µM [falling, single point]. On to `CCCCC(=O)Nc1sc2c(c1-c1nc3ccccc3s1)CCN(C(C)=O)C2`, for which the cell number change is -12.6%. Further, the AC50 under setting [2] was 1.3 µM [rising, full curve, poor fit]. Moreover, the AC50 under setting [1] is 0.82 µM [rising, full curve]. As to `CCOC(=O)CNC(=O)CSc1nc2cccnc2n1C`, the cell number change turned out to be 3.76%. Besides, under setting [1], the AC50 was 0.82 µM [falling, single point]. With `Cc1nc(N)sc1-c1nnc(SCC(=O)Nc2nccs2)n1C`, the cell number change was -6.93%. For the same compound, under setting [2], the AC50 is 0.058 µM [falling, full curve, poor fit]. For `Cc1cc(C)nc(SC(C)CNS(=O)(=O)c2ccccc2)n1` (configuration not stated), the cell number change is -14.5%. Also, the AC50 under setting [2] is 4.11 µM [falling, single point]. As for `CCn1c(SCC(=O)Nc2ccc3c(c2)OCCO3)nnc1C1CC1`, the cell number change was 10.3%. For the same compound, under setting [1], the AC50 is 8.2 µM [rising, partial curve].

On to `Cc1ccc(NC(=O)CCSc2nnnn2-c2ccc3c(c2)OCO3)cc1C`, for which the cell number change was 83.3%. Under setting [2], the AC50 was 1.64 µM [rising, partial curve]. Also, the half-maximal activity concentration (AC50) under setting [1] is 5.8 µM [rising, partial curve]. Regarding `Cn1cncc1C(=O)c1ccccc1`, the cell number change worked out at 5.61%. In addition, the concentration at half-maximal activity (AC50) under setting [1] is 0.291 µM [falling, full curve, poor fit]. On to `Cn1c(CCN2CCOCC2)nc2cc(NC(=O)COc3ccc(Cl)cc3)ccc21`, for which the cell number change is 7.35%. On to `COc1ccc(NS(=O)(=O)c2cc(NC(=O)C3CCCO3)ccc2N2CCCC2)cc1` (configuration not stated), for which the cell number change was 53.3%. For the same compound, under setting [2], the concentration at half-maximal activity (AC50) is 4.11 µM [falling, single point]. Besides, under setting [1], the AC50 is 5.17 µM [rising, partial curve]. `CCOc1ccc(NC(=O)c2cnc3scc(C)n3c2=O)cc1`: the AC50 under setting [1] was 0.58 µM [rising, single point]. As to `COc1ccc(-n2nc3c(c2NC(=O)c2ccco2)CS(=O)(=O)C3)cc1`, the cell number change is 23.9%. Besides, under setting [1], the AC50 was 20.6 µM [rising, single point]. `CCN(CC)S(=O)(=O)c1ccc(O)c(NC(=O)c2ccc(N3CCOCC3)c([N+](=O)[O-])c2)c1`: the cell number change was 37.1%. For `COc1cccc(CN(C)C(=O)c2cccc(S(=O)(=O)NCc3ccccc3)c2)c1OC`, the cell number change amounted to 8.84%. Besides, the AC50 under setting [2] is 6.51 µM [rising, single point].
